# PubChem BioAssay AID248 (DTP/NCI, 2004)
# The list does not hold the whole screen: it gathers tests that were run many times, whatever their T/C, doses with no T/C, and many T/C values between a quarter and a half above the control. Other doses and runs of a compound stand elsewhere. T/C gives the treated animals as a percentage of the vehicle group. Some doses have a count of surviving animals in place of a T/C: the source holds a T/C of zero for them, seemingly a mark for toxic or unscored doses. Some doses without a T/C left all or most animals alive at the check, yet need not have been tolerated: the source hardly ever lists a survival T/C far under the control, and the zero likely stands for such cases as well. Survivors were counted at the toxicity check, usually on the fifth day, unless a day is given; later deaths do not show. Schedules are NCI's codes, taken here to give the interval after Q, in days (D) or hours (H), and the number of doses after X. Some entries were tested several times; their values stand side by side, smallest first. Some schedules carry Z or #; the key to these is not given. Where survival is the endpoint, the PubChem record calls one and a half times the control and up active, and a quarter to a half above the control has no call in these data; cut-offs in other NCI protocols can differ.
# Test system: L1210 leukemia ip in BDF1 mice, survival T/C
# Experiment: NCI In Vivo Anticancer Drug Screen. Data for tumor model L1210 Leukemia (intraperitoneal) in B6D2F1 (BDF1) mice
# Conditions: T/C endpoint: mean survival time, higher T/C = longer survival
# [1] = dose: 200.0 mg/kg/injection, schedule: Q01DX001 (ip), vehicle: Klucel (hydroxypropylcellulose) (HPC)
# [2] = dose: 200.0 mg/kg/injection, schedule: Q01DX001 (ip), vehicle: carboxymethylcellulose (CMC)
# [3] = dose: 50.0 mg/kg/injection, schedule: Q01DX009 (ip), vehicle: other
# [4] = dose: 200.0 mg/kg/injection, schedule: Q01DX009 (ip), vehicle: Klucel (hydroxypropylcellulose) (HPC)
# [5] = dose: 400.0 mg/kg/injection, schedule: Q01DX009 (ip), vehicle: Klucel (hydroxypropylcellulose) (HPC)
# [6] = dose: 400.0 mg/kg/injection, schedule: Q04DX003 (ip), vehicle: saline
# [7] = dose: 100.0 mg/kg/injection, schedule: Q01DX001 (ip), vehicle: Klucel (hydroxypropylcellulose) (HPC)
# [8] = dose: 100.0 mg/kg/injection, schedule: Q04DX003 (ip), vehicle: saline
# [9] = dose: 200.0 mg/kg/injection, schedule: Q01DX001 (ip), vehicle: saline
# [10] = dose: 200.0 mg/kg/injection, schedule: Q04DX003 (ip), vehicle: saline
# [11] = dose: 400.0 mg/kg/injection, schedule: Q01DX001 (ip), vehicle: saline
structure (smiles),measurement,setting,value
O=C1C(Cl)=CC(Cl)=C/C1=N/Cl,survivor count,[1],3 of 3
same,survivor count,"dose: 400.0 mg/kg/injection, schedule: Q01DX001 (ip), vehicle: Klucel (hydroxypropylcellulose) (HPC)",3 of 3
O=C1OC(c2cccc(Cl)c2)=N/C1=C\C=C/c1ccccc1,survivor count,[2],6 of 6
same,survivor count,"dose: 400.0 mg/kg/injection, schedule: Q01DX009 (ip), vehicle: carboxymethylcellulose (CMC)",3 of 3 and 6 of 6
OC(CCN1CCOCC1)c1cc2ccccc2o1 (stereo not given),survivor count,"dose: 300.0 mg/kg/injection, schedule: Q04DX003 (ip), vehicle: saline with Tween-80",1 of 6
C=CCCCCCCCCC(=O)N/N=C/c1ccc(NC(C)=O)cc1,survivor count,"dose: 50.0 mg/kg/injection, schedule: Q01DX001 (ip), vehicle: other",6 of 6
same,T/C,[3],88 % of control
same,survivor count,[3],"2 of 3, 3 of 3, 6 of 6"
same,survivor count,"dose: 100.0 mg/kg/injection, schedule: Q01DX009 (ip), vehicle: carboxymethylcellulose (CMC)",3 of 3
same,survivor count,"dose: 100.0 mg/kg/injection, schedule: Q01DX009 (ip), vehicle: other",3 of 3
same,survivor count,"dose: 100.0 mg/kg/injection, schedule: Q04DX002 (ip), vehicle: Klucel (hydroxypropylcellulose) (HPC)",3 of 3
same,survivor count,"dose: 200.0 mg/kg/injection, schedule: Q01DX009 (ip), vehicle: other",3 of 3
same,survivor count,"dose: 400.0 mg/kg/injection, schedule: Q04DX002 (ip), vehicle: Klucel (hydroxypropylcellulose) (HPC)",3 of 3
Cc1c(O)ccc([N+](=O)[O-])c1O,survivor count,"dose: 100.0 mg/kg/injection, schedule: Q04DX003 (ip), vehicle: saline with Tween-80",6 of 6
same,survivor count,"dose: 200.0 mg/kg/injection, schedule: Q04DX003 (ip), vehicle: saline with Tween-80",5 of 6
same,survivor count,"dose: 400.0 mg/kg/injection, schedule: Q04DX003 (ip), vehicle: saline with Tween-80",2 of 6
CCC[CH2][Sn]([CH2]CCC)([CH2]CCC)[CH2]C(C)(C)c1ccccc1,survivor count,"dose: 150.0 mg/kg/injection, schedule: Q01DX001 (ip), vehicle: other",2 of 6
same,survivor count,"dose: 300.0 mg/kg/injection, schedule: Q01DX001 (ip), vehicle: other",0 of 6
COc1ccc2c(c1)C13CCN(C)C(C2)C1CCC1(C3)OCCO1 (stereo not given),survivor count,[4],0 of 6
same,survivor count,[5],0 of 6
same,survivor count,[6],1 of 6
CC(=O)C(O)N1C(=O)C=CC1=O (stereo not given),survivor count,"dose: 10.0 mg/kg/injection, schedule: Q01DX009 (ip), vehicle: saline",2 of 6
same,survivor count,"dose: 10.0 mg/kg/injection, schedule: Q04DX003 (ip), vehicle: water",3 of 6
same,survivor count,"dose: 20.0 mg/kg/injection, schedule: Q## X006 (ip), vehicle: water",2 of 6
c1ccc(C2CC([P+](c3ccccc3)(c3ccccc3)c3ccccc3)=NN2)cc1 (stereo not given),survivor count,"dose: 6.25 mg/kg/injection, schedule: Q01DX009 (ip), vehicle: Klucel (hydroxypropylcellulose) (HPC)",2 of 3
same,T/C,"dose: 12.5 mg/kg/injection, schedule: Q01DX009 (ip), vehicle: Klucel (hydroxypropylcellulose) (HPC)",126 % of control
same,survivor count,"dose: 25.0 mg/kg/injection, schedule: Q01DX009 (ip), vehicle: Klucel (hydroxypropylcellulose) (HPC)","0 of 3, 1 of 6, 1 of 3"
same,survivor count,"dose: 50.0 mg/kg/injection, schedule: Q01DX009 (ip), vehicle: Klucel (hydroxypropylcellulose) (HPC)",0 of 3
same,survivor count,[7],3 of 6
same,survivor count,"dose: 100.0 mg/kg/injection, schedule: Q01DX002 (ip), vehicle: Klucel (hydroxypropylcellulose) (HPC)",0 of 6
same,survivor count,"dose: 100.0 mg/kg/injection, schedule: Q01DX009 (ip), vehicle: Klucel (hydroxypropylcellulose) (HPC)",0 of 3 and 3 of 6
same,survivor count,[1],1 of 6
same,survivor count,[4],0 of 6
same,survivor count,[5],0 of 6
CN(C)CCC(=O)c1ccccc1,survivor count,[8],3 of 6
same,survivor count,[9],0 of 4
same,survivor count,[10],0 of 6
same,survivor count,[11],0 of 4
same,survivor count,[6],0 of 6
c1ccc2c(c1)cnn1cnnc21,survivor count,"dose: 300.0 mg/kg/injection, schedule: Q01DX001 (ip), vehicle: carboxymethylcellulose (CMC)",0 of 6
CN(C)N=Nc1ccc(-c2ccc(N=NN(C)C)cc2)cc1,T/C,"dose: 31.2 mg/kg/injection, schedule: Q01DX Z (ip), vehicle: other",127 % of control
same,T/C,"dose: 62.5 mg/kg/injection, schedule: Q01DX Z (ip), vehicle: other",146 % of control
same,survivor count,"dose: 125.0 mg/kg/injection, schedule: Q01DX Z (ip), vehicle: other",2 of 6
same,survivor count,"dose: 250.0 mg/kg/injection, schedule: Q01DX Z (ip), vehicle: other",1 of 6
COC(=O)CCC(=O)Nc1ccc(C(=O)CBr)cc1,survivor count,"dose: 50.0 mg/kg/injection, schedule: Q04DX003 (ip), vehicle: Klucel (hydroxypropylcellulose) (HPC)",3 of 6
same,survivor count,"dose: 100.0 mg/kg/injection, schedule: Q04DX003 (ip), vehicle: Klucel (hydroxypropylcellulose) (HPC)",3 of 6
same,survivor count,"dose: 200.0 mg/kg/injection, schedule: Q04DX003 (ip), vehicle: Klucel (hydroxypropylcellulose) (HPC)",0 of 6
same,survivor count,"dose: 400.0 mg/kg/injection, schedule: Q04DX003 (ip), vehicle: Klucel (hydroxypropylcellulose) (HPC)",0 of 6
CC(=O)OCC1OC(N2C(=O)/C(=C/c3cccs3)SC2=S)C(OC(C)=O)C(OC(C)=O)C1OC(C)=O (stereo not given),survivor count,"dose: 400.0 mg/kg/injection, schedule: Q01DX005 (ip), vehicle: other",0 of 6
CN(C)[C@@H]1C(=O)C(C(=O)NCc2nc3[nH]cnc(=S)c3[nH]2)=C(O)[C@@]2(O)C(=O)C3=C(O)c4c(O)cccc4[C@@](C)(O)[C@H]3C[C@@H]12,T/C,"dose: 86.0 mg/kg/injection, schedule: Q01DX Z (ip), vehicle: carboxymethylcellulose (CMC)",125 % of control
same,T/C,"dose: 128.0 mg/kg/injection, schedule: Q01DX Z (ip), vehicle: carboxymethylcellulose (CMC)",149 % of control
O=C1CN=C(c2ccccc2)c2cc(Cl)ccc2N1,survivor count,[5],3 of 6
CCOc1ccc2c(ccc(/C=C\c3cc(C)c4cccnc4c3O)[n+]2C)c1,survivor count,"dose: 100.0 mg/kg/injection, schedule: Q01DX001 (ip), vehicle: carboxymethylcellulose (CMC)",5 of 6
same,survivor count,[2],2 of 6
same,survivor count,"dose: 400.0 mg/kg/injection, schedule: Q01DX001 (ip), vehicle: carboxymethylcellulose (CMC)",1 of 6
CC(=O)/C(=C\c1ccccc1)CNC(C)(C)C,survivor count,[9],0 of 3
same,survivor count,[11],0 of 3
C#CCN(CC#C)CC#C,survivor count,[8],3 of 6
same,survivor count,[10],0 of 6
same,survivor count,[6],0 of 6
CCCCCCCCCCCCCC(=O)OC1CCC2(C)C(=CCC3C2CCC2(C)C(C(C)CCCC(C)C)CCC32)C1 (stereo not given),survivor count,[7],3 of 3
CCCCCCC(=O)/C=C\c1ccc([N+](C)(C)C)cc1,survivor count,"dose: 100.0 mg/kg/injection, schedule: Q01DX009 (sc), vehicle: steroid suspending solution",0 of 6
same,survivor count,"dose: 200.0 mg/kg/injection, schedule: Q01DX001 (sc), vehicle: steroid suspending solution",2 of 6
same,survivor count,"dose: 400.0 mg/kg/injection, schedule: Q01DX001 (sc), vehicle: steroid suspending solution",0 of 6
[O-]c1n[n+](C2CCCCC2)no1,survivor count,"dose: 20.0 mg/kg/injection, schedule: Q01DX001 (ip), vehicle: other",2 of 4
same,survivor count,"dose: 40.0 mg/kg/injection, schedule: Q01DX001 (ip), vehicle: other",0 of 4
same,survivor count,"dose: 80.0 mg/kg/injection, schedule: Q01DX001 (ip), vehicle: other",0 of 4
same,survivor count,"dose: 100.0 mg/kg/injection, schedule: Q01DX001 (ip), vehicle: other",0 of 4
same,survivor count,"dose: 200.0 mg/kg/injection, schedule: Q01DX001 (ip), vehicle: other",0 of 4
same,survivor count,"dose: 400.0 mg/kg/injection, schedule: Q01DX001 (ip), vehicle: other",0 of 4
